Experimental data as given in patent US5055594A, “Fluorogenic trypotophanase substrates” (Becton, Dickinson and Company, priority 1990, dated 1991).

System: tryptophanase
Experiment: Reaction of serine-AMC-carbamate with tryptophanase (fluorescence increase)
Format: biochemical
Protocol: To a 1.19×10^-6 M solution of serine-AMC-carbamate dissolved in 100 mM potassium phosphate buffer, pH 8.2 was added 100 μL of a 5.0 mq/mL solution of tryptophanase. Fluorescence increase was measured at 440 nm, with excitation at 365 nm. Starting fluorescence of the serine-AMC-carbamate solution was 26 relative units. After addition of the enzyme, fluorescence at 440 nM increased at a rate of 97 units/minute. […] Fluorescence increase in the absence of enzyme was negligible.

Structure (SMILES): Cc1cc(=O)oc2cc(NC(=O)OC[C@H](N)C(=O)O)ccc12 [serine-AMC-carbamate]
- Starting fluorescence of the serine-AMC-carbamate solution (1.19×10^-6 M in 100 mM potassium phosphate buffer, pH 8.2, before enzyme, excitation 365 nm, emission 440 nm): 26 relative units
- Fluorescence increase in the absence of enzyme (1.19×10^-6 M substrate, phosphate buffer pH 8.2, no enzyme): negligible
